Construct, isoform or probe ends are uncertain for at least one entry. Results from cells or extracts need not show a direct contact.
Target: Pax-5 (UniProt Q02548)
Assay: competition with a labelled probe
Details: 100-fold molar excess cold competitor against biotin N1; protein in a lysate after overexpression; label: none as competitor (table lists biotin oligos)

By UniProt entry, the sequences of proteins in these tests, tags left out. Where a name states a change or a piece, a line headed by the entry shows the natural chain unless it says otherwise.
UniProt Q02548: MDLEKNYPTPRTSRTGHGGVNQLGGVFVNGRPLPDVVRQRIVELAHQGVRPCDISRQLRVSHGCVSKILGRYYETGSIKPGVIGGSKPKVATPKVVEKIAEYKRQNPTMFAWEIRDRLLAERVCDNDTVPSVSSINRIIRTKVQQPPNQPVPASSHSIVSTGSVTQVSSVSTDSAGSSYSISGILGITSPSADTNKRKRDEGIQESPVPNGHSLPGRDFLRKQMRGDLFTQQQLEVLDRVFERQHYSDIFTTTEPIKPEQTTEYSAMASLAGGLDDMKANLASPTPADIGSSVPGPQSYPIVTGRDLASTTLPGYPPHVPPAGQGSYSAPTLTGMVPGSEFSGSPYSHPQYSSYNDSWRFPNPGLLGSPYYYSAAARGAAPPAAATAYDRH

GAATGGGGCACTGAGGCGTG (double strand) [Pax-5 consensus motif (Pax-5 EMSA)]
binding result: binds

From paper PMC5355325
